From publication PMC12040169 (PLOS Biology, 2025)
Some of the results follow.

Test system: T1, CTL2-GFP (C. trachomatis L2/434/Bu, GFP-expressing)
T1 construct: L2/434/Bu, GFP-expressing
Set-up: species or system HeLa; Intracellular C. trachomatis growth in HeLa cells, bulk GFP fluorescence relative to DMSO
Conditions: bulk GFP, single well; 28.5 h, 10 µM; inhibitor

Compound	% of control remaining
CC(=O)Nc1ccc(-c2cccc(COC3CCN(C(=O)Cc4ccc(Cl)c(Cl)c4)CC3)c2)cc1 [CBK149487]	109.897%
CCCOC1CCCN(C(=O)c2cc(Cl)c[nH]2)C1 (centres unmarked) [CBK304802]	182.93%
CC(NC(=O)C1(Cn2ccnc2)CC1)c1nncn1C(C)C (centres unmarked) [CBK306682]	100.506%
CCOc1cc(NC2CCN(C(=O)C3CCCC3)C2)ncn1 (centres unmarked) [CBK304137]	80.4032%
COc1ccc(Cn2nc(NC(C)=O)c3ccccc32)cc1 [CBK048200]	101.405%
COc1ccc(S(=O)(=O)Nc2ccc(S(=O)(=O)Nc3nccs3)cc2)c([N+](=O)[O-])c1 [CBK266801]	7.985%
O=C(CC1C(=O)Nc2ncnn21)Nc1ccccc1 (centres unmarked) [CBK288071]	115.485%
O=C(O)/C=C/c1cn([C@H]2C[C@@H](O)[C@@H](CO)O2)c(=O)[nH]c1=O [CBK201174]	148.013%
O=C(O)Cc1ccc(OCC(=O)NCCCSc2ccccc2)cc1 [CBK296630]	134.098%
Cc1ccc(NC(=O)CSc2cc(-n3nc(C)cc3C)ncn2)cc1 [CBK287820]	102.165%
CC(C)C(=O)N1CCCC(n2c(=O)oc3ccc(Cl)cc32)C1 (centres unmarked) [CBK282890]	106.839%
COc1ccc(C(=O)NCC2(c3ccc(OC)c(OC)c3)CCCCC2)c(OC)c1 [CBK067049]	107.949%
Cc1cc(OCC(=O)N2CCCc3c(cnn3C)C2)ccc1Cl [CBK285277]	102.461%
Nc1c(Cc2c(Cl)cccc2Cl)c(=O)n2n1CCCC2 [CBK089337]	127.461%
O=C(NCc1cccnc1)c1cc2c(ccc3ccccc32)oc1=O [CBK270195]	149.277%
Cn1c(=O)c2c(ncn2CCCn2cnc3c2c(=O)n(C)c(=O)n3C)n(C)c1=O [CBK268933]	145.647%
Cc1cn2c3c(=O)n(CCN4CCCCC4)c(=O)n(C)c3nc2n1CC1CCCO1 (centres unmarked) [CBK269820]	116.479%
COc1ccc(C(CC(=O)O)C(=O)O)cc1OC (centres unmarked) [CBK261943]	115.39%
COc1ccc([N+](=O)[O-])cc1NC(=O)C1(c2ccc(OC)c(OC)c2)CCOCC1 [CBK266243]	227.836%
O=C(NC[C@H]1CC[C@H](c2nnc(-c3ccsc3)o2)CC1)C1CC1 [CBK283361]	123.231%
CSCc1nnc(SCc2ccccc2Oc2ccccc2)o1 [CBK296743]	133.09%
CCN(CC)C(=O)COc1ccc(NC(=O)Nc2cc(C)on2)cc1Cl [CBK305734]	87.1774%
COC(=O)c1c(COC(=O)c2cnc(Cl)c(Cl)c2)nc2ccccc2c1C [CBK296940]	132.82%
Cc1nn(C)cc1C(=O)N1CCCCC1c1nc2ccccc2[nH]1 (centres unmarked) [CBK283779]	122.495%
CC(c1ccc(F)c(F)c1)N(C)C(=O)Cn1[nH]c(=O)ccc1=O (centres unmarked) [CBK305810]	170.563%
COC12CCCC(C(=O)O)(CCC1)C2 [CBK038238]	108.678%

Compound	% of control remaining
O=C(NCc1c(Cl)cccc1Cl)N(Cc1cccnc1)Cc1ccc2c(c1)OCO2 [CBK159450]	54.3459%
Nc1nc(Cl)cc(Sc2ccc3ccccc3c2)n1 [CBK021630]	156.425%
Cc1ccc(NC(=O)CN2CCN(Cc3ccc4c(c3)OCO4)CC2)cc1 [CBK074403]	100%
COc1ccc(CCNC(=O)c2cc3c([nH]c2=O)CCC3)cc1C [CBK281627]	120.751%
CCCNc1cncc(-c2cccnc2)n1 [CBK037921]	116.546%
O=C(c1cc[nH]n1)N1CCCC(c2cc3ccccc3cn2)C1 (centres unmarked) [CBK284921]	131.116%
CCCC(C(=O)O)C(C)CC(=O)Nc1ccccc1Cl (centres unmarked) [CBK286927]	99.036%
CN1CCC(N2CC[C@@H]3[C@H]2C(=O)NC[C@H](CCC(=O)NCc2ccc(F)cc2)N3C)CC1 [CBK289022]	151.558%
COc1cc(-c2nccnc2NCCc2ccccn2)cc(OC)c1OC [CBK037307]	144.459%
Oc1cccc(OCCOc2nccnc2N2CCCC2)c1 [CBK115756]	138.263%
Cc1ccc(N(Cc2ccccc2OC(=O)c2cccnc2)C2=NS(=O)(=O)c3ccccc32)cc1 [CBK265760]	98.924%
CCNc1cncc(-c2ccc(F)c(Cl)c2)n1 [CBK065322]	93.9006%
COc1ccc(NC(=S)NC(=O)c2cc3c(C)nn(-c4ccccc4)c3s2)cc1[N+](=O)[O-] [CBK265324]	131.804%
Cc1ccc(C)n1-c1cccc(C(=O)N2CCn3cnnc3C2)c1 [CBK283646]	123.218%
COc1ccc(C2=NN(c3ccccc3)C(c3ccc(OC)c(OC)c3C(=O)O)C2)cc1 (centres unmarked) [CBK262679]	145.493%
O=C(OCCc1ccncc1)N1Cc2ccccc2C1 [CBK200141]	112.66%
CN1CCN(c2cccc(-c3ccccc3Oc3ccccc3)n2)CC1 [CBK037598]	187.536%
CC(C)(C)c1ccc(C(=O)NCCNC(=O)c2nonc2N)cc1 [CBK268869]	127.635%
Cc1c(C(=O)NCCN2CCCC(C(N)=O)C2)[nH]c2c(F)cccc12 (centres unmarked) [CBK306877]	128.191%
N#CCCN1CCCC2(C1)NCCc1c2[nH]c2ccccc12 (centres unmarked) [CBK040031]	113.648%
COc1ccc([C@@]23CCN(C(=O)c4ccc(Cl)c(Cl)c4)C[C@@H]2CN(C)C3)cc1OC [CBK074308T]	101.383%
COc1cccc(CN2CCCC3(C2)c2[nH]c4ccccc4c2CCN3C(C)=O)c1 (centres unmarked) [CBK039634]	123.079%
CC(C)C(NC(=O)CSc1n[nH]c(=O)n1Cc1ccccc1)c1ccc2c(c1)OCCCO2 (centres unmarked) [CBK297875]	126.405%
O=C1NCCN1CCOc1nccnc1/C=C/c1ccccc1 [CBK106879]	122.477%
CC(O)CN(Cc1ccc(-n2cnc3ccccc32)cc1)Cc1ccc2c(c1)OCO2 (centres unmarked) [CBK286475]	76.2757%
O=C(O)CCCN1C(=O)/C(=C/c2ccccc2[N+](=O)[O-])SC1=S [CBK262801]	123.82%

Rewritten in markdown: entries from further up

| Compound | % of control remaining |
| --- | --- |
| O=C(NCc1c(Cl)cccc1Cl)N(Cc1cccnc1)Cc1ccc2c(c1)OCO2 [CBK159450] | 54.3459% |
| COc1ccc([C@@]23CCN(C(=O)c4ccc(Cl)c(Cl)c4)C[C@@H]2CN(C)C3)cc1OC [CBK074308T] | 101.383% |

Following part:

Compound	% of control remaining
Nc1ncc(-c2ccc(C(F)(F)F)cc2)nc1-c1ccc(C(=O)N2CCOCC2)cc1 [CBK090524]	126.8%
c1csc(-c2cn3ccnc3c(NCC3CC3)n2)c1 [CBK066754]	173.578%
O=C(c1ccc(SCc2cccnc2)c([N+](=O)[O-])c1)N1CCCCC1 [CBK294452]	91.3198%
O=C(CN1C(=O)c2ccccc2C1=O)Nc1ccc(S(=O)(=O)N2CCCCCC2)cc1 [CBK266693]	84.9549%
c1ccc(CNc2cccc(N3CCNCC3)n2)cc1 [CBK003176T]	139.284%
CCS(=O)(=O)N1CC2C3c4ccccc4C(c4ccccc43)C2C1 (centres unmarked) [CBK282328]	107.573%
CC(=O)C1=C(C)N2C(=Nc3ccccc3C2(C)C)S1 [CBK010180C]	119.581%
CC(C)(C)c1ccc(C(=O)CSCC(=O)Nc2ccc3ccccc3c2)cc1 [CBK268394]	123.864%
CC(C)(N)C(=O)N1CC(C(=O)NCCN(Cc2ccccc2)S(C)(=O)=O)C(c2ccccc2)C1 (centres unmarked) [CBK014706T]	100.552%
CCOc1ccc(NC(=O)c2c[nH]c(=O)n(-c3ccc(F)cc3)c2=O)cc1 [CBK287553]	133.151%
Cc1ccc2ccccc2c1CN(/N=N/c1nonc1C)c1nonc1C [CBK262412]	108.278%
CCOC(=O)c1c(-c2ccc(-c3ccccc3)cc2)csc1NC(=O)c1ccccc1C(=O)O [CBK296096]	80.983%
CCCc1nc(C(=O)NC2CC(=O)N(CCc3ccc(F)cc3)C2)cs1 (centres unmarked) [CBK306548]	107.651%
CC(=O)c1cc(C(=O)N2CCC(O)(c3ccccc3C)CC2)cs1 [CBK282532]	107.705%
CN(C)c1ccccc1-c1cc(Nc2ccc(C(C)(C)C)cc2)ncn1 [CBK090872]	166.485%
CC(=O)N[C@H]1CC[C@]2(C)CCC([C@H](C)C(=O)NC3CCCC3)[C@H](O)[C@H]2[C@@H]1C (some centres unmarked) [CBK289436]	154.609%
CCn1cnc2c1CC/C(=N\O)C2 [CBK010044]	144.81%
CCOC(=O)c1c(NC(=O)c2cc(-c3ccc(C)c(C)c3)nc3ccccc23)sc2c1CCC(C)C2 (centres unmarked) [CBK262627]	88.1542%
CC(=O)N1CCC2(C/C=C/C[C@H]3CN(C(=O)Cc4cccc(F)c4)CC[C@H]3NC(=O)CNC2=O)CC1 [CBK292103]	126.105%
CC(C)CCNC(=O)N1CCN(Cc2ccccc2)CC1 [CBK155657]	117.864%
COCCOc1nnc(C)c2ccccc12 [CBK019388]	100.836%
O=C1Nc2ccc(Br)cc2/C1=C1/SC(=S)N(C(Cc2ccccc2)C(=O)O)C1=O (centres unmarked) [CBK263521]	121.189%
CNC(=S)N(CCS(=O)(=O)c1ccc(Cl)cc1)Cc1cccs1 [CBK006431]	99.3154%
COc1cccc(NC(=O)c2cc(-c3ccc(C(=O)N4CCOCC4)cc3)cnc2N)c1 [CBK160203]	111.411%
COc1cccc([C@H]2CN(C(=O)c3ccccc3)[C@@H]3CCN(Cc4ccccc4F)C[C@H]23)c1 [CBK285608]	85.5855%
